# Results as given in the supplement of paper PMC4604168 (melanoma cell lines).
# The list shows a part of the results. Single values are uncertain, as repeats are few or missing.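 Imaging used 1,536-well plates; nuclei positive for cleaved PARP by antibody were divided by total DNA-stained nuclei to yield the apoptosis fraction. Doses for screening kept most cells viable, and cell lines differ markedly in resting and induced cleaved-PARP levels.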
# Key:
# Assay in all cases: cleaved PARP positive nuclei fraction relative to DMSO control; melanoma cells; higher = more apoptosis
# Conditions in all cases: library dose: low library concentration; 72 h
# MZ2-MEL = test system: MZ2-MEL
# MeWo = test system: MeWo
# RPMI7951 = test system: RPMI7951
# RVH-421 = test system: RVH-421
# SkMel28 = test system: SkMel28
# SkMel2 = test system: SkMel2
# SkMel30 = test system: SkMel30
# SkMel5 = test system: SkMel5
# UACC257 = test system: UACC257
# UACC62 = test system: UACC62
# WM115 = test system: WM115
# WM1716 = test system: WM1716
# WM1745 = test system: WM1745
# WM3526 = test system: WM3526
# WM3619 = test system: WM3619
# WM451Lu = test system: WM451Lu
SMILES,cleaved PARP positive nuclei fraction (MZ2-MEL) [%],cleaved PARP positive nuclei fraction (MeWo) [%],cleaved PARP positive nuclei fraction (RPMI7951) [%],cleaved PARP positive nuclei fraction (RVH-421) [%],cleaved PARP positive nuclei fraction (SkMel28) [%],cleaved PARP positive nuclei fraction (SkMel2) [%],cleaved PARP positive nuclei fraction (SkMel30) [%],cleaved PARP positive nuclei fraction (SkMel5) [%],cleaved PARP positive nuclei fraction (UACC257) [%],cleaved PARP positive nuclei fraction (UACC62) [%],cleaved PARP positive nuclei fraction (WM115) [%],cleaved PARP positive nuclei fraction (WM1716) [%],cleaved PARP positive nuclei fraction (WM1745) [%],cleaved PARP positive nuclei fraction (WM3526) [%],cleaved PARP positive nuclei fraction (WM3619) [%],cleaved PARP positive nuclei fraction (WM451Lu) [%]
"Nc1nc(F)nc2c1ncn2[C@@H]1O[C@H](CO)[C@@H](O)[C@@H]1O [fludarabine] + O=C(O)C(=O)Nc1sc2c(c1C(=O)O)CCNC2 [TCS401] (first compound 0.2 µM, partner dose 1.66667 µM)",38.1,299,33,107,85.4,140,273,171,267,155,45.2,69.8,93.2,96.2,77.3,312
"CNC(=O)c1cc(Oc2ccc(NC(=O)Nc3ccc(Cl)c(C(F)(F)F)c3)cc2)ccn1 [sorafenib] + NCC(=O)Nc1ccc(-n2nc(C(F)(F)F)cc2-c2ccc3c(ccc4ccccc43)c2)cc1 [OSU03012] (first compound 0.4 µM, partner dose 1 µM)",157,354,109,118,142,185,111,146,51.8,80.2,96.7,133,206,108,79.3,48.1
"Cn1c(=O)n(-c2ccc(C(C)(C)C#N)cc2)c2c3cc(-c4cnc5ccccc5c4)ccc3ncc21 + COc1ccc(COc2ccc(Cc3cnc(N)nc3N)cc2OC)cc1 [GW2580] (first compound 0.004 µM, partner dose 1 µM)",60.2,21.8,74.5,189,130,48.4,19.5,72.5,159,91.3,58.6,26.4,81.7,27.2,93.4,30.2
"CCCS(=O)(=O)Nc1ccc(F)c(C(=O)c2c[nH]c3ncc(Cl)cc23)c1F + Oc1nc(-c2ccc(C(F)(F)F)cc2)nc2c1CSCC2 [XAV939] (first compound 0.08 µM, partner dose 2 µM)",76.1,99.9,133,171,51.6,61,78.7,78.7,90.1,160,111,139,114,98.4,113,46.9
"CS(=O)(=O)CCNCc1ccc(-c2ccc3ncnc(Nc4ccc(OCc5cccc(F)c5)c(Cl)c4)c3c2)o1 [lapatinib] + COCC[n+]1c2c(n(Cc3cnccn3)c1C)C(=O)c1ccccc1C2=O [YM155] (first compound 0.8 µM, partner dose 0.0004 µM)",138,104,263,190,87.3,39.2,80.3,,,26.2,153,22.1,117,91.9,83.8,106
"C[C@@H](Oc1cc(-c2cnn(C3CCNCC3)c2)cnc1N)c1c(Cl)ccc(F)c1Cl [Crizotinib] + CC(=O)c1c(C)c2cnc(Nc3ccc(N4CCNCC4)cn3)nc2n(C2CCCC2)c1=O [palbociclib] (first compound 0.2 µM, partner dose 0.04 µM)",144,436,118,298,50.6,97.6,205,,,83.8,123,220,47.3,155,111,115
"Cc1cc(Nc2cc(N3CCN(C)CC3)nc(/C=C/c3ccccc3)n2)n[nH]1 + OCc1c[nH]c2ccccc12 [Indole-3-carbinol] (first compound 0.04 µM, partner dose 0.8 µM)",48.1,153,85.2,101,21.6,82.5,39.8,,,123,148,90.2,98.3,33.6,104,47.4
"Nc1ccn([C@@H]2O[C@H](CO)[C@@H](O)C2(F)F)c(=O)n1 [gemcitabine] + COCC[n+]1c2c(n(Cc3cnccn3)c1C)C(=O)c1ccccc1C2=O [YM155] (first compound 0.0004 µM, partner dose 0.0004 µM)",211,57.2,21.6,51.5,23.8,152,69.2,,,46.9,93.1,93.1,109,25.5,186,68.3
"C[C@@H](Oc1cc(-c2cnn(C3CCNCC3)c2)cnc1N)c1c(Cl)ccc(F)c1Cl [Crizotinib] + C#Cc1cccc(Nc2ncnc3cc(OCCOC)c(OCCOC)cc23)c1 [erlotinib] (first compound 0.2 µM, partner dose 0.8 µM)",71.4,118,125,97.2,53.8,130,134,,,125,62.2,170,119,47,90.2,142
"CN1CCN(c2ccc3nc(-c4c(N)c5c(F)cccc5[nH]c4=O)[nH]c3c2)CC1 [Dovitinib] + Nc1ncn([C@H]2C[C@H](O)[C@@H](CO)O2)c(=O)n1 [decitabine] (first compound 0.1 µM, partner dose 0.1 µM)",60.2,1000,209,100,101,95.1,267,,,259,114,921,124,105,110,178
